No constants are given. Whether binding was seen depends on the method and setting. Some entries that bind do so weakly or less than the wild type.
Legend:
[1] = target: C/EBP bZIP domain (chimeric GCN4-C/EBP protein) (C/EBP part: 'present in rat liver'; GCN4 part: yeast); assay: CD thermal melts of mixtures
[2] = target: C/EBP bZIP domain (chimeric GCN4-C/EBP protein) (C/EBP part: 'present in rat liver'; GCN4 part: yeast); assay: CD thermal melts at 222 nm, 4 µM + 4 µM (FIG. 13B)
[3] = target: C/EBP bZIP domain (chimeric GCN4-C/EBP protein) (C/EBP part: 'present in rat liver'; GCN4 part: yeast); assay: sedimentation equilibrium at 37 °C (FIG. 12)
[4] = target: C/EBP bZIP domain (chimeric GCN4-C/EBP protein) (C/EBP part: 'present in rat liver'; GCN4 part: yeast); assay: summary of CD, gel shift and transfection results
[5] = target: C/EBP bZIP domain (chimeric GCN4-C/EBP protein) (C/EBP part: 'present in rat liver'; GCN4 part: yeast); assay: heterodimer stability of four mutant proteins
[6] = target: C/EBP bZIP domain (chimeric GCN4-C/EBP protein) (C/EBP part: 'present in rat liver'; GCN4 part: yeast); assay: thermal melts of mixtures (FIG. 1)

| binding [1] | binding [2] | binding [5] | Binder | further results |
| --- | --- | --- | --- | --- |
| binds | binds |  | 0heptad-F (F zipper with the basic region deleted) (designed binder) ASMTGGQQMGRDPGGGTQQEVLELESRNDRLRKEVEQLERELDTLRGIFRQLPESSLVKAMGNCA |  |
| binds | binds |  | 3heptad-F (designed binder) ASMTGGQQMGRDPGGGLARENEELEKEAEELEQENAELEQEVLELESRNDRLRKEVEQLERELDTLRGIFRQLPESSLVKAMGNCA | binding [3]: binds; binding [4]: binds |
|  |  | binds | 3heptad-F (cap, b c) (designed binder) ASMTGGQQMGRDPGGGLARNNEEVRKSREEAKQRNAELEQEVLELESRNDRLRKEVEQLERELDTLRGIFRQLPESSLVKAMGNCA |  |
|  |  | binds | 3heptad-F (cap, e g) (designed binder) ASMTGGQQMGRDPGGGLARENIAVEKERDKAEQENVELEQEVLELESRNDRLRKEVEQLERELDTLRGIFRQLPESSLVKAMGNCA |  |
|  |  | binds | 3heptad-F (cap, a d) (designed binder) ASMTGGQQMGRDPGGGLARNNIALRKSADKLKQRNVELEQEVLELESRNDRLRKEVEQLERELDTLRGIFRQLPESSLVKAMGNCA |  |
| binds | binds |  | 1heptad-F (designed binder) ASMTGGQQMGRDPGGGLEQENAELEQEVLELESRNDRLRKEVEQLERELDTLRGIFRQLPESSLVKAMGNCA |  |
| binds | binds |  | 2heptad-F (designed binder) ASMTGGQQMGRDPGGGLEKEAEELEQENAELEQEVLELESRNDRLRKEVEQLERELDTLRGIFRQLPESSLVKAMGNCA |  |
| binds | binds |  | 4heptad-F (designed binder) ASMTGGQQMGRDPGGGLEQRAEELARENEELEKEAEELEQENAELEQEVLELESRNDRLRKEVEQLERELDTLRGIFRQLPESSLVKAMGNCA | binding [6]: binds |
|  |  |  | C/EBP bZIP domain (chimeric GCN4-C/EBP protein) (protein) SEYQPSLFALNPMGFSPLDGSKSTNENVSASTSTAKPMVGQLIFDKFIKTEEDPGKAKKSVDKNSNEYRVRRERNNIAVRKSRDKAKQRNVETQQKVLELTSDNDRLRKRVEQLSRELDTLRGIFRQLPESSLVKAMGNCA | binding [3]: binds |
|  |  | binds | 3heptad-F (cap) (designed binder) ASMTGGQQMGRDPGGGLARNNIAVRKSRDKAKQRNVELEQEVLELESRNDRLRKEVEQLERELDTLRGIFRQLPESSLVKAMGNCA |  |
